# The whole screen tested about 340,000 compounds, of which about 6,200 (1.8%) were called active. Only results without a clear call are listed here; the source files them as inconclusive. Calls follow the shape of the dose curve; as a rule, active = well fitted activation curve with a large enough effect; inconclusive = small, poorly fitted or top-dose-only effect; inactive = no such curve, though single readings can be large or run the other way. Some tests of the compounds listed are not included; inactive here does not mean inactive elsewhere.
# Test: A quantitative high throughput screen for small molecules that induce DNA re-replication in SW480 colon adenocarcinoma cells. Also: nearly all actives have a fitted effect of over 55% in size.
# Conditions: Hoechst DNA content imaging, 48 h
# Potency is read from the fitted curve at half-maximal effect.
row,SMILES,Potency
1,O=C(OCCN1CCCC1)C(O)(c1ccccc1)c1ccccc1,inconclusive: 16.4 µM
